Laboratory results from patent US20250235543A1, “MODIFIED PROTEINS AND PROTEIN DEGRADERS” (Cullgen (Shanghai), Inc., priority 2021, published 2025).
For at least one compound, name, drawing or mass did not settle the structure.

Experiments:
Type in all cases: cell-based
CDK4, CDK6 = test: Immunoblot of CDK4 and CDK6 protein levels in Calu-1 cells; conditions: Calu-1 / BT-549 cells, 16 hours, dose range
Procedure: (§1) Specific exemplary heterobifunctional compounds were characterized in Calu-1, BT-549 and other cells. Cells that express cyclin D1-3 and CDK4/6 proteins were treated with heterobifunctional compounds disclosed herein at indicated concentrations for 16 hours. Cells were collected, lysed and subject to immunoblotting using an antibody specific to cyclin D1, cyclin D2, cyclin D3, CDK4, CDK6 or phosphorylated R^b proteins. Tubulin or GAPDH was used as the loading control. DMSO treatment was used as the negative control.
(§2) In a time-course study, Calu-1 cells were treated with 500 nM CPD-002, or 100 nM CPD-031 for indicated period of time prior to immunoblotting (FIG. 4A-4B).
(§3) To verify that heterobifunctional compound-mediated degradation is dependent on the binding to CDK4-cyclin D complex, we designed three negative control compounds, CPD-042, CPD-049 and CPD-380, which are derived from CPD-002 CPD-031 and CPD-343, respectively. These three control compounds bear the same DDB1 ligand and linker as their corresponding active heterobifunctional compounds but with modified warheads to impair the binding of the control compounds to CDK4. […] Two cereblon (CRBN)-recruiting reference heterobifunctional compounds, CP-10 (Su, J Med Chem, 2019; CAS No.: 2366268-80-4) and BSJ-03-123 (Brand, Cell Chem Biol, 2019; CAS No.: 2361493-16-3) were analyzed in Calu-1 cells.

[1] = tested on: cyclin D1, cyclin D2, cyclin D3, CDK4 and CDK6; test: Immunoblotting of cyclin D and CDK4/6 protein levels in Calu-1 cells; conditions: indicated concentrations, 16 hours
Procedure: (§4) Calu-1 (FIG. 2A) or BT-549 (FIG. 2B) cells were treated with CPD-002, CPD-004, or palbociclib at indicated concentrations for 16 hours.
Calu-1 cells were treated with CPD-031 at indicated concentrations for 16 hours.
Calu-1 cells were treated with CPD-002 or CPD-031 at 500 nM or 100 nM, respectively for indicated period of time.
Calu-1 cells were pre-treated with DMSO, 20 μM MG-132 (MG), 5 μM MLN4924 (MLN) or 1 μM TAK-243 (TAK) for 2 hours, and subsequently incubated with 500 nM CPD-002, 500 nM CPD-004, or 100 nM CPD-031 for another 4 h or 2 h prior to immunoblotting (FIG. 5A-5B).
Calu-1 cells were treated with a dose range of negative control compounds CPD-042 or CPD-049 for 16 hours (FIG. 6A-6B).
Calu-1 cells were treated with reference compounds CP-10 or BSJ-03-123 at indicated concentrations for 8 hours.
Cultured cells were washed with cold PBS once and lysed in cold RIPA buffer supplemented with protease inhibitors and phosphatase inhibitors (Beyotime Biotechnology). The solutions were then incubated at 4° C. for 30 min with gentle agitation to fully lysed cells. Cell lysates were centrifuged at 13,000 rpm for 10 min at 4° C. and pellets were discarded. Total protein concentrations in the lysates were determined following BCA assays (Beyotime Biotechnology). […] Protein bands were quantitated using the Image Lab software provided by Bio-Rad.

[2] = tested on: cyclin D1, cyclin D2, cyclin D3; test: Immunoblot of cyclin D protein levels in Calu-1 (and BT-549) cells; conditions: Calu-1 / BT-549 cells, 16 hours, dose range
Procedure: as §1, §2
The heterobifunctional compound-mediated degradation was dependent on the ubiquitin-proteasome system and cullin E3 ligase. […] In addition, DDB1 E3 ligase was critical for the degrader-induced cyclin D downregulation. […]
as §3, with “respectively.” for “respectively. These three control compounds bear the same DDB1 ligand and linker as their corresponding active heterobifunctional compounds but with modified warheads to impair the binding of the control compounds to CDK4.”

[3] = tested on: cyclin D1, cyclin D2, cyclin D3, CDK4 and CDK6; test: Immunoblotting of cyclin D and CDK4/6 protein levels in BT-549 cells; conditions: indicated concentrations, 16 hours
Procedure: as §4
Cultured cells were washed with cold PBS once and lysed in cold RIPA buffer supplemented with protease inhibitors and phosphatase inhibitors (Beyotime Biotechnology). The solutions were then incubated at 4° C. for 30 min with gentle agitation to fully lysed cells. Cell lysates were centrifuged at 13,000 rpm for 10 min at 4° C. and pellets were discarded. Total protein concentrations in the lysates were determined following BCA assays (Beyotime Biotechnology). Cell lysates were mixed with Laemmli loading buffer and heated at 99° C. for 5 min. Proteins were resolved on SDS-PAGE and visualized using Western ECL Substrate kits on a ChemiDoc MP Imaging system (Bio-Rad). Protein bands were quantitated using the Image Lab software provided by Bio-Rad.

SMILES: CC(=O)c1c(C)c2cnc(Nc3ccc(N4CCNCC4)cn3)nc2n(C2CCCC2)c1=O [Palbociclib, palbociclib]
- effect on CDK4/6 protein levels (CDK4, CDK6): didn't have significant effect
- cyclin D1, cyclin D2, cyclin D3, CDK4 and CDK6 protein levels [1]: didn't significantly change the levels of these proteins
- reduction of cyclin D1, cyclin D2, and cyclin D3 protein levels [2]: didn't have significant effect
- cyclin D1, cyclin D2, cyclin D3, CDK4 and CDK6 protein levels [3]: didn't significantly change the levels of these proteins
